These are yes or no findings as the source states them, for the method shown. Some binding calls cover weakened binding; strength is not graded here.

We go through six molecules from patent US20230095167A1 (UNIVERSITEIT MAASTRICHT, published 2023).

Assay [1] concerns the target T1, recombinant NT-proBMP10 (22-312) (human, UniProt O95393 22-312).
T1 construct: In-house construct; also called pro-peptide BMP10; BMP10(312)
T1 sequence: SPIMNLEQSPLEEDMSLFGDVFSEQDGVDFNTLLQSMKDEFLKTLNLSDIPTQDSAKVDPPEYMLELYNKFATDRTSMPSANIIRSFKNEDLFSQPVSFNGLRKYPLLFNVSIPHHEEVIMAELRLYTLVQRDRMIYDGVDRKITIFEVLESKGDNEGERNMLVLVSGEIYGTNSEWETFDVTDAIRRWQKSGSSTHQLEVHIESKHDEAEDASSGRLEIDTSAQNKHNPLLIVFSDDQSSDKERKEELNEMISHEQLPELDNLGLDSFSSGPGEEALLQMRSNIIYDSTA
The assay can be described thus: SPR Biacore 8K, 37°C. (Surface plasmon resonance follows binding to a sensor surface in real time, without labels.)

The target in assay [2] is T1, recombinant NT-proBMP10 (22-312). Kind of assay: SPR kinetic characterisation, summary in the description.

B1: MAB<BMP10>rRb-9E7 HC12/LC7 (p10rw/p10rx)-IgG(SPA) (antibody, V domains shown)
VH: QSLEESGGGLVQPEGSLTLTCIASAFSFSSGYYMCWVRQAPGKGLEWIACIYAGSSGTTYYASWAKGRFTISKASSTTVTLLMTSLTAADTATYFCARGPGASGYRLGLWGPGTLVTVSS
VL: DVVMTQTPASVSEPVGGTVTIKCQASEDIYRLLAWYQQKPGQPPKLLIYDASDLASGVPSRLSGSGSGTEYTLSISDLECADAATYYCQQGYYISGGDSFGGGTEVVVK
notes: Recombinant rabbit monoclonal IgG; also called clone 9E7
With B1, the binding result in assay [1] and in assay [2] was “binds” throughout.

B2: MAB<BMP10>rRb-14C8 HC2/LC3 (p10th/p10ti)-IgG(SPA) (antibody, V domains shown)
VH: QSVEESGGRLVTPGTPLTLTCTASGIDLSRYAMTWVRQAPGKGLEWIGIIGASSGTWYASWAKGRFTIAKTSTTVDLRITSPTTEDTATYFCARDNGDSKDYAFDPWGPGTLVTVSS
VL: IDMTQTPSPVSAAVGDTVTINCQASENIYSFLAWYQQKPGHSPNLLIYFASKLVSGVPSRFKGSGSGTQFTLTISDVQCDDAATYYCQQTYTYSNGDNPFGGGTEVVVK
notes: Recombinant rabbit monoclonal IgG; also called clone 14C8; VH-5/VL-5
Consider B2, for which the binding entry in assay [1] and in assay [2] was “binds” in each case.

B3: MAB<BMP10>rRb-2H8 HC7/LC6 (p10qv/p10qw)-IgG(SPA) (antibody, V domains shown)
VH: QSVEESGGRLVTPGTPLTLTCTASAFSLSRYVMSWVRQAPGKGLEFIGFINASGSTSYASWAKGRFTISKTSTTVDLKMTSLTTEDTATYFCATGNLWGPGTLVTVSS
VL: DIVMTQTPSSVSGPVGGTVTINCQASQNIYSNLAWYQQKPGQPPKLLIYYASTLVSGVPSRFKGSGSGTQFTLTISDLECANAATYYCQSKDGPTSSTYGAFGGGTEVVVR
notes: Recombinant rabbit monoclonal IgG; also called clone 2H8; VH-6/VL-6
For the molecule B3, the binding entry in assay [1] and in assay [2] was “binds” in each case.

B4: MAB<BMP10>rRb-3H8 HC3/LC3 (p10qx/p10qy)-IgG(SPA) (antibody, V domains shown)
VH: QSVEESGGRLVTPGTPLTLTCTASGFSLSKYDMSWVRQAPGKGLEWIGAIGGRGVTDYTTWAKGRFTISKTATTVDLKMTSPTTEDTATYFCVRALAGDTLWGPGTLVTVSS
VL: AQVLTQTASPVSAAVGSTVTINCQASQNIYKYNNLAWYQQKPGQPPKRLIYEASKLASGVPSRFSGSGSGTQFTLTISGVQCEDAATYYCQGTFECSSADCFGFGGGTEVVVK
notes: Recombinant rabbit monoclonal IgG; also called clone 3H8; VH-7/VL-7
Consider B4, for which, in assay [1], the binding entry is reported as “binds”.

B5: 11C10 (antibody, V domains shown)
VH: QSLEESGGRLVTPGTALTVTCTVSGIDLSRNLMSWVRQAPGEGLEWIGSINFRNITWYASWAKGRFTISKTSTTVDLRISSPTTEDTATYFCARGVYVNSNGYYSLWGQGTPVTVSS
VL: DIVMTQTPASVEAAVGGTVTINCQASQSVSNLLAWYQQKPGQPPKLLIYGASKLESGVPSRFKGSGSGTQFTLTINDLECDDAATYYCQTYWGGDGTSYLNPFGGGTEVVVK
notes: Rabbit monoclonal IgG; also called clone 11C10; VH-3/VL-3
Turning to B5, the binding result in assay [1] and in assay [2] was “binds” throughout.

B6: MAB<BMP10>rRb-8G5 HC3/LC5 (p10qz/p10ra)-IgG(SPA) (antibody, V domains shown)
VH: QSLEESGGDLVKPGASLTLTCTASGFSFSSSYWICWVRQAPGKGLEWIACIYAGSSDITYYASWAKGRFTVSKTSSPTVTLQMTSLTAADTATYFCARGRYYVDGYADYYPGDFNLWGPGTLVTVSS
VL: DIVMTQTPASVEAAVGGTVTIKCQASQSISSYLAWYQQKSGQPPKLLIYLASTLESGVPSRFKGSGSGTEFTLTISDLECADAATYYCQSYYYSSSSSYGSAFGGGTEVVVK
notes: Recombinant rabbit monoclonal IgG; also called clone 8G5; VH-8/VL-8
On to B6, for which the binding entry in assay [1] is recorded as “binds”.
